# Experimental data from the supplement of paper PMC6821926, “Diaminoquinazoline MMV675968 from Pathogen Box inhibits Acinetobacter baumannii growth through targeting of dihydrofolate reductase” (Scientific Reports, 2019).
# ± gives the uncertainty stated by the source. The list shows a part of the results.
# System: Acinetobacter baumannii Naval-81
# Experiment: percent growth relative to DMSO-treated control; higher = less growth inhibition
# Conditions: 10 µM; 18 h
row,Compound,percent growth [%]
1,Cc1nnc(NC(=O)c2cn(-c3ccccc3)nc2-c2ccccc2C)o1,88 ± 28
2,COc1cc(C2=NCCN2)cc2cc(-c3ccc(C4=NCCN4)cc3)oc12,113 ± 40
3,N#CCN(CCCCN1CCN(c2ccc(F)cc2)CC1)C(=O)OCc1ccccc1,84.8 ± 7.9
4,c1ccc(Oc2ccc(-c3cncc(-c4ccc5[nH]ccc5c4)n3)cc2)cc1,86.2 ± 4.1
5,COc1ccccc1OCCCCn1c(C2CC2)nc2ccccc21,80 ± 16
6,COc1ccc(-c2cncc3ccc(C(=O)NCCCn4ccnc4)nc23)cc1,104 ± 23
7,Clc1ccc(Cl)c(CO[C@H]2CCCC[C@@H]2n2ccnc2)c1,109 ± 17
8,O=C(Nc1ccc2c(c1)B(O)OC2)c1ccccc1C(F)(F)F,93.9 ± 12
9,COc1ccc(CN2CCOc3ccc(C(C)(O)CN(C)C)cc3C2)cc1C (stereo not drawn),106 ± 24
10,O=C(NC1CC1)c1ccc(N2CCC(Cc3ccccc3)CC2)nc1,82.4 ± 19
11,Nc1ncnc2c1ncn2[C@@H]1O[C@H](COS(=O)(=O)NC(=O)c2ccccc2O)[C@@H](O)[C@H]1O,87 ± 6.3
12,O=C(CN1CCOCC1)Nc1ccc2ncnc(Nc3ccc(OCc4cccc(F)c4)c(Cl)c3)c2c1,87.8 ± 9
13,Nc1ncnc2c1c(-c1cnc3ccccc3c1)nn2CC1CCNCC1,94.5 ± 26
14,O=C(Nc1ccnc(-c2cccnc2)n1)c1cc(C(F)(F)F)cc(C(F)(F)F)c1,83.4 ± 31
15,CCn1ncc2c(NC3CCOCC3)c(CNC(=O)c3ccnn3C)c(C)nc21,90.7 ± 10
16,CCOc1ccccc1NC(C)C(=O)Nc1cc(C(F)(F)F)ccc1N1CCOCC1 (stereo not drawn),76.9 ± 41
17,COc1ccc(C2=NN(C3CCCCCC3)C(=O)C2(C)C)cc1OCCCCOc1ccc(-c2nn[nH]n2)cc1,98.6 ± 26
18,Cc1ccc(S(=O)(=O)Nc2ccc(CN3CCN(C(=O)c4cccc(C#N)c4)CC3)cc2)cc1,97.1 ± 14
19,CC(C)(C)c1cnc(NC(=O)c2ccccc2O)s1,84.6 ± 28

row,Compound,percent growth [%]
1,Cc1ccc2oc(-c3cc(NC(=O)Cc4ccccc4)ccc3Cl)nc2c1,84.9 ± 19
2,COc1cccc(CC(=O)N2CCC(n3c(C)nc4ccc(F)cc43)CC2)c1,81.3 ± 17
3,Nc1ccc(C(=O)Nc2ccc(-c3nc4ccccc4o3)cc2)cc1,67.1 ± 22
4,c1ccc(C[C@@H]2CN(c3nccc(Oc4ccc(-n5ccnc5)cc4)n3)CCN2)cc1,85.6 ± 13
5,Brc1c(-c2ccc3c(c2)OCO3)nc2ncccn12,75.2 ± 22
6,CCN(CC)CCCN1CCN(C(=O)c2cccc(-c3noc(C(F)(F)F)n3)c2)CC1,101 ± 12
7,O=C(NC1CCCCC1)N1CCN(Cc2ccc3c(c2)OCO3)CC1,87 ± 1.6
8,COc1cccc(NC(=O)c2c(NC(=O)c3cccnc3)sc3c2CCC3)c1,85.4 ± 24
9,O=C(Nc1cnc2ccccc2c1)c1cccc(-n2cnnn2)c1,86 ± 23
10,Cc1cnc(CCNC(=O)c2cc(-c3ccc(Cl)cc3)cs2)[nH]1,75.5 ± 23
11,O=C(c1ccc(NCCO)cc1)C1C[C@H]1c1ccc(Cl)cc1 (stereo partly drawn),85.7 ± 12
12,CN1CCN(c2cc(-c3ccc(F)cc3)nc(-c3ccncc3)n2)CC1,79.1 ± 13
13,CCC(=O)Nc1ccccc1C(=O)Nc1ccccn1,83.7 ± 26
14,O[C@@H](c1cc(C(F)(F)F)nc2c(C(F)(F)F)cccc12)[C@H]1CCCCN1,82.8 ± 12
15,Cc1cc2ccccc2n1CC(=O)N1CC(C(=O)N2CCCCC2)Oc2ccccc21 (stereo not drawn),108 ± 33
16,CS(=O)(=O)c1ccc(C(=O)N(CC2CCCO2)c2nc3ccccc3s2)cc1[N+](=O)[O-] (stereo not drawn),70.3 ± 19
17,NCC(=O)N1CCn2c(nc(-c3ccccc3)c2Nc2ccc3c(c2)OCO3)C1,101 ± 4
18,O=C(Nc1nnc(-c2ccc(Cl)s2)o1)c1ccc(Cl)s1,80.7 ± 11
19,COc1ccc(N(CCc2cccc(C)n2)C(=O)C2CCCCC2)cc1,92.3 ± 7

# 3 structures out of the list, sorted by length of the SMILES, smallest number first.
row,Compound,percent growth [%]
13,CCC(=O)Nc1ccccc1C(=O)Nc1ccccn1,83.7 ± 26
3,Nc1ccc(C(=O)Nc2ccc(-c3nc4ccccc4o3)cc2)cc1,67.1 ± 22
4,c1ccc(C[C@@H]2CN(c3nccc(Oc4ccc(-n5ccnc5)cc4)n3)CCN2)cc1,85.6 ± 13
